PubChem BioAssay AID1671195 | Yale University, 2021
The deposit covers about 22,000 reagents; this is a part drawn at random. Of all reagents, about 1,510 (6.9%) were called active. 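Active includes knockdowns raising or lowering LDL uptake; positive z-scores mean more uptake, negative mean less.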 Reagents against one gene are numbered here.

Aim: 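Knockdowns that increase or decrease uptake of fluorescent LDL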 (primary screen)
Cell system: human Huh7 hepatoma cells
Reagent: siRNA pool against human genes, 18 nM
Time to read-out: about 2 to 2.5 days of knockdown, then 8 h LDL uptake
Challenge: DiI-labelled LDL at 30 µg/ml for 8 h, in lipoprotein-deficient serum medium
Detection: 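Per-cell DiI-LDL intensity by automated imaging; well means scaled to the plate median and given as a robust z-score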
Scale: robust z-score: higher = more LDL uptake after knockdown
Active means: 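Active when two or more replicates show a robust z-score above 2 or below -2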

no.	gene	pool no.	robust z-score, replicate 1	robust z-score, replicate 2	robust z-score, replicate 3	Outcome
1	HUS1	1	-0.55	0.432	-0.0859	inactive
2	MEA1	1	1.24	1.21	0.816	inactive
3	C8orf17	1	-0.301	-0.403	-0.651	inactive
4	ABCG8	1	-0.177	-0.0786	-0.512	inactive
5	ANKRD46	1	0.36	0.174	0.105	inactive
6	ARHGEF37	1	-0.929	-0.863	-0.897	inactive
7	PPP1R13B	1	0.527	0.763	0.608	inactive
8	TBL3	1	-0.138	-0.566	-0.861	inactive
9	TULP1	1	1.13	-1	-0.641	inactive
10	BATF2	1	-1.3	-0.542	-1.26	inactive
11	LOC390913 (retired record)	1	1.16	1.78	1.42	inactive
12	WDR11	1	1.91	2.74	0.612	inactive
13	VSTM2B-DT	1	0.0039	0.221	0.531	inactive
14	RNF10	1	0.864	1.65	0.652	inactive
15	ZNF7	1	-3.77	-3.11	-2.15	active
16	RMDN1	1	-0.559	-1.23	-0.158	inactive
17	JMJD1C	1	0.133	0.095	0.0601	inactive
18	SEMA3C	1	1	0.796	0.117	inactive
19	LRTM1	1	-1.44	-1.13	-0.86	inactive
20	AS3MT	1	-0.866	-1.37	-1.17	inactive
21	GLO1	1	1.28	0.985	1.17	inactive
22	SPINK13	1	-0.428	0.917	-0.481	inactive
23	ANXA1	1	0.245	0.052	0.478	inactive
24	MYH6	1	2.23	1.11	2.97	active
25	RNF138	1	0.834	1.09	1.57	inactive
26	HSPA8	1	-0.751	-0.502	-0.704	inactive
27	RSPH1	1	0.385	0.704	1.06	inactive
28	GPRC5B	1	0.0548	-0.566	0.0203	inactive
29	SDHAP1	1	0.694	0.649	0.295	inactive
30	RIPOR2	1	-0.641	0.388	-0.65	inactive
31	NKAPL	1	-0.633	-0.66	-0.371	inactive
32	DMAC2	1	0.564	0.00297	1.47	inactive
33	PLEKHG2	1	-0.184	-0.621	-0.642	inactive
34	RAB3D	1	0.0526	-0.585	-0.0114	inactive
35	EED	1	-1.42	0.838	-0.206	inactive
36	LOC440780 (retired record)	1	2.03	2.06	1.98	active
37	FABP7	1	-0.538	-0.868	-0.639	inactive
38	TOP2B	1	0.0445	1.31	1.06	inactive
39	SOWAHD	1	-0.0539	-0.21	0.155	inactive
40	ATP6V1G2	1	3.39	2.97	2.71	active
41	ERICH1	1	0.587	-0.388	-0.563	inactive
42	ERICH1	2	-1.19	-1.16	-0.928	inactive
43	FDPSP5	1	-0.861	-0.878	-1.03	inactive
44	ZNF766	1	-1.22	-0.96	-0.765	inactive
45	PAK4	1	-0.315	0.448	0.326	inactive
46	GLB1L2	1	1.66	1.28	1.15	inactive
47	LOC400688 (retired record)	1	-0.0598	0.0684	-0.167	inactive
48	AGPAT4	1	-2.62	-1.69	-1.77	inactive
49	RUNX3	1	-0.116	-1.06	-1.05	inactive
50	DEPDC1	1	-1.12	0.438	0.98	inactive
51	AMDHD1	1	-0.00288	-0.0784	0.743	inactive
52	SMIM19	1	0.422	-0.169	-0.0805	inactive
53	CHRFAM7A	1	-0.157	-0.25	-0.402	inactive
54	CD14	1	-0.248	-0.917	0.239	inactive
55	LIMCH1	1	0.652	0.231	0.508	inactive
56	SMPDL3A	1	0.211	-0.374	-0.679	inactive
57	EHF	1	1.34	2	2.13	active
58	LOC338825 (retired record)	1	-0.503	-0.478	-0.507	inactive
59	DISP1	1	-0.748	-0.201	-0.233	inactive
60	CRYBG2	1	3.1	0.662	2.33	active
61	RABGGTB	1	2.07	1.26	0.927	inactive
62	LOC392215 (retired record)	1	0.612	0.653	0.605	inactive
63	CYP51A1	1	2.59	3.72	3.16	active
64	PRR12	1	-0.61	-1.63	-2.14	inactive
65	KIR3DX1	1	-1.81	-1.88	-1.5	inactive
66	LINC01483	1	0.337	0.207	0.502	inactive
67	BICDL1	1	0.584	-0.739	-0.471	inactive
68	GSTT2	1	-0.0902	0.689	0.486	inactive

Just “robust z-score, replicate 2” (8 entries from above):
DEPDC1 = 0.438
AMDHD1 = -0.0784
SMIM19 = -0.169
CHRFAM7A = -0.25
CD14 = -0.917
LIMCH1 = 0.231
SMPDL3A = -0.374
EHF = 2
